{"source": "the supplement of paper PMC4635364", "note": "Where a name gives a salt, the structure may show the parent alone. The list shows a part of the results. Repeats in this data set agree poorly, so a single value says little.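 Human fetal ventral-midbrain neural progenitor line ReNCell VM, differentiated without mitogens. Images stained for doublecortin (early neurons) or tyrosine hydroxylase (dopaminergic neurons) were scored by blinded raters against untreated wells (0 = no change). Repeats and both raters were averaged, and compounds averaging 2 or higher were picked as hits for retesting.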", "data": [{"tested_on": "ReNCell VM", "assay": "neuronal differentiation score (DCX+ cell fraction vs untreated, manual image score) (score (-3 to 3)); higher = more neuronal differentiation", "settings": "library: Tocriscreen; 2 uM; 2 weeks", "values": [{"compound": "CCCc1c(OCC(O)COc2ccc3c(=O)cc(C(=O)O)oc3c2CCC)ccc(C(C)=O)c1O", "note": "(stereo not given)", "neuronal differentiation score": "inactive: 0"}, {"compound": "Cc1ccc(NC(=O)C(C)C)cc1C1CCN(Cc2ccc(Oc3ccc(F)c(F)c3)cc2)CC1", "neuronal differentiation score": "inactive: 0"}, {"compound": "CC(=N)NCCCC[C@H](N)C(=O)O", "note": "[L-NIL hydrochloride]", "neuronal differentiation score": "inactive: 0"}, {"compound": "OCCNCCCOc1cccc(Cl)c1Cl", "note": "[2,3-DCPE hydrochloride]", "neuronal differentiation score": "inactive: 0"}, {"compound": "O=C(c1ccc(Nc2nccc(-c3cc4ccccc4s3)n2)cc1)N1CCC(N2CCCC2)CC1", "neuronal differentiation score": "inactive: 0"}, {"compound": "CNC(=O)[C@@H](Cc1ccccc1)N(C)C(=O)[C@@H](Cc1ccc2ccccc2c1)N(C)C(=O)/C=C/CC(C)(C)N", "note": "[Tabimorelin]", "neuronal differentiation score": "inactive: 0"}]}, {"tested_on": "ReNCell VM", "assay": "dopaminergic neuron differentiation score (TH+ cell fraction vs untreated, manual image score) (score (0 to 3)); higher = more TH+ dopaminergic neuron differentiation", "settings": "library: LOPAC; 2 uM; 4 weeks; BDNF 10 ng/ml + GDNF 10 ng/ml", "values": [{"compound": "CNCCc1cnc(CCC(c2ccccc2)c2ccccc2)[nH]1", "note": "[N-Methylhistaprodifen dioxalate salt]", "dopaminergic neuron differentiation score": "inactive: 0"}, {"compound": "O=C(O)CCCCCCCC(=O)O", "note": "[Azelaic acid]", "dopaminergic neuron differentiation score": "inactive: 0"}, {"compound": "CC1CNCCN1S(=O)(=O)c1cccc2cnccc12", "note": "(stereo not given)", "dopaminergic neuron differentiation score": "inactive: 0"}, {"compound": "NCCC1CCCC(CCN)N1", "note": "(stereo not given) [MDL 26,630 trihydrochloride]", "dopaminergic neuron differentiation score": "inactive: 0"}, {"compound": "CCCCCCCCCCCCCCCC(=O)NCC(COP(=O)([O-])OCC[N+](C)(C)C)OCC", "note": "(racemic) [rac-2-Ethoxy-3-hexadecanamido-1-propylphosphocholine]", "dopaminergic neuron differentiation score": "inactive: 0"}]}, {"tested_on": "ReNCell VM", "assay": "dopaminergic neuron differentiation score (TH+ cell fraction vs untreated, manual image score) (score (0 to 3)); higher = more TH+ dopaminergic neuron differentiation", "settings": "library: Phytochemical; 2 uM; 4 weeks; BDNF 10 ng/ml + GDNF 10 ng/ml", "values": [{"compound": "COc1ccc2c(c1)N(C(C)=O)C1C3COC(C)C4CN5CCC21C5CC43", "note": "(stereo not given) [Strychnospermine]", "dopaminergic neuron differentiation score": "inactive: 0"}, {"compound": "C=C(C)[C@@H]1CC[C@]2(CO)CC[C@]3(C)[C@H](CC[C@@H]4[C@@]5(C)CC[C@H](O)C(C)(C)[C@@H]5CC[C@]43C)[C@@H]12", "note": "[Betulin]", "dopaminergic neuron differentiation score": "inactive: 0"}, {"compound": "Nc1ccn([C@@H]2O[C@H](CO)[C@@H](O)[C@H]2O)c(=O)n1", "note": "[Cytidine]", "dopaminergic neuron differentiation score": "inactive: 0"}]}, {"tested_on": "ReNCell VM", "assay": "dopaminergic neuron differentiation score (TH+ cell fraction vs untreated, manual image score) (score (0 to 3)); higher = more TH+ dopaminergic neuron differentiation", "settings": "library: Prestwick; 2 uM; 4 weeks; BDNF 10 ng/ml + GDNF 10 ng/ml", "values": [{"compound": "CCC(Cc1c(I)cc(I)c(N)c1I)C(=O)O", "note": "(stereo not given) [Iopanoic acid]", "dopaminergic neuron differentiation score": "inactive: 0"}, {"compound": "C[C@@H](c1ncncc1F)[C@](O)(Cn1cncn1)c1ccc(F)cc1F", "note": "[Voriconazole]", "dopaminergic neuron differentiation score": "inactive: 0"}, {"compound": "CN1CCN(c2c(F)cc3c(=O)c(C(=O)O)cn4c3c2SCC4)CC1", "note": "[Rufloxacin]", "dopaminergic neuron differentiation score": "inactive: 0"}, {"compound": "O=C(CCCN1CCC(O)(c2ccc(Br)cc2)CC1)c1ccc(F)cc1", "note": "[Bromperidol]", "dopaminergic neuron differentiation score": "inactive: 0"}, {"compound": "CCOC(=O)C1=C(COCCN)NC(C)=C(C(=O)OC)C1c1ccccc1Cl", "note": "(stereo not given) [Amlodipine]", "dopaminergic neuron differentiation score": "inactive: 0"}, {"compound": "O=C(N/N=C/c1ccc([N+](=O)[O-])o1)c1ccc(O)cc1", "note": "[Nifuroxazide]", "dopaminergic neuron differentiation score": "inactive: 0"}]}]}
